Data on 14 targets can be found in the supplement of paper PMC6411743.

Amino acid sequences for entries named in this document (tags omitted). A change or cut given only in a name is not applied to a line headed by its entry.
UniProt Q9P2K5: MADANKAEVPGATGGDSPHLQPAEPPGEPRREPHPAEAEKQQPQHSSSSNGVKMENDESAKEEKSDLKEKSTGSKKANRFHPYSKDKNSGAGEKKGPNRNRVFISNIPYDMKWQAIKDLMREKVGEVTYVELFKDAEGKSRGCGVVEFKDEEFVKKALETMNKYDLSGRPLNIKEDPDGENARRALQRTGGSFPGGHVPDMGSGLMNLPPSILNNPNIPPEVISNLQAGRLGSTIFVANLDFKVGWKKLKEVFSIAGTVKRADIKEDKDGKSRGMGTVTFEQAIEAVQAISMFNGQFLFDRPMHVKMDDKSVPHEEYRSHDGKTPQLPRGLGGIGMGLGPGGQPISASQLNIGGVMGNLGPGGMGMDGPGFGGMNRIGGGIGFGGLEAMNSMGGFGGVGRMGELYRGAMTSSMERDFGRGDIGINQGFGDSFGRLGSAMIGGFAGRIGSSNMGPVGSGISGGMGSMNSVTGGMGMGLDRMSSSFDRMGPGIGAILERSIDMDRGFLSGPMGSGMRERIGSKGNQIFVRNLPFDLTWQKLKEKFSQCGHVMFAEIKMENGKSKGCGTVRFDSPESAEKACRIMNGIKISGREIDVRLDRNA
UniProt P54252: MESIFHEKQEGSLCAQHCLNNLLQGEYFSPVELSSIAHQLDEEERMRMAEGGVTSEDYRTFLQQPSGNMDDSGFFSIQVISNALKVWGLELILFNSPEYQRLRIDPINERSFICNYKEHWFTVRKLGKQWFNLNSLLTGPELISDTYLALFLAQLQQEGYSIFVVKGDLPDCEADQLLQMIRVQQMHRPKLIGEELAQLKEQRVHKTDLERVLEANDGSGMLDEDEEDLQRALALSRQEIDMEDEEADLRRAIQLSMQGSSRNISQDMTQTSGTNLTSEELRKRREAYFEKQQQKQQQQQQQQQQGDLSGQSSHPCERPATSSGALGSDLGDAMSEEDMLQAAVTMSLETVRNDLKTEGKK
UniProt Q9BSQ5: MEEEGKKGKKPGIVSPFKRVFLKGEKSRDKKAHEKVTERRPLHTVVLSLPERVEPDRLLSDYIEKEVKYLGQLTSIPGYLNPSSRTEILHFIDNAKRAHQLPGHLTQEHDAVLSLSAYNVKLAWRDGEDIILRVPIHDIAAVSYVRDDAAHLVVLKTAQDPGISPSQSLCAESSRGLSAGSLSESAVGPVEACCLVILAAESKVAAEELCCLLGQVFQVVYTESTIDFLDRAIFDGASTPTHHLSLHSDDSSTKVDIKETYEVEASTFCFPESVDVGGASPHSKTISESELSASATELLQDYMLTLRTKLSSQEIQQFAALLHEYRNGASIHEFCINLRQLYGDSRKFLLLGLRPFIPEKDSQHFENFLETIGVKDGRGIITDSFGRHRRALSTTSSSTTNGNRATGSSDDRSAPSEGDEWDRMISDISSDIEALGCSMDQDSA
UniProt Q9Y496, whole entry: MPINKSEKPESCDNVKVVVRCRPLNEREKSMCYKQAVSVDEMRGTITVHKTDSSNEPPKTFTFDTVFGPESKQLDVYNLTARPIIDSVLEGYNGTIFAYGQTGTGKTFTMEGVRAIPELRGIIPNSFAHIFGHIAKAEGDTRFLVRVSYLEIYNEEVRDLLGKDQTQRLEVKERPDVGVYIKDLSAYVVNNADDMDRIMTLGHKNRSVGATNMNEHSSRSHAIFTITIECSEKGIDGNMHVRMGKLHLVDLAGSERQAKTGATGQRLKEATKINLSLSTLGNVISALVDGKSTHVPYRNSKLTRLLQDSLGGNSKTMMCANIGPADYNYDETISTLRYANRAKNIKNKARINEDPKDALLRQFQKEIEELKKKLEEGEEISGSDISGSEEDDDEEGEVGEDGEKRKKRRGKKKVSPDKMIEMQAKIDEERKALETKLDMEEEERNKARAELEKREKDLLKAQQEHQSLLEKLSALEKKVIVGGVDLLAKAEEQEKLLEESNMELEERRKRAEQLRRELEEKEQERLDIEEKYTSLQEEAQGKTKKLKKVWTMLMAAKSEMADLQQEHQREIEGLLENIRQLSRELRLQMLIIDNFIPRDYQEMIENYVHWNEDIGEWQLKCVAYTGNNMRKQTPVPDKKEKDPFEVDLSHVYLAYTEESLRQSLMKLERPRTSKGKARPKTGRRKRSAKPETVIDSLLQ
UniProt O15258: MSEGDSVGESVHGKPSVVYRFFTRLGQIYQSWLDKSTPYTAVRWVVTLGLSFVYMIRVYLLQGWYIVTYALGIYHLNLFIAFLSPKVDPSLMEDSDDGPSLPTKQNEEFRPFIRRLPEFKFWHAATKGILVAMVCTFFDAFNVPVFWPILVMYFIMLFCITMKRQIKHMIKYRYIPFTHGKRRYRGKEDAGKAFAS
UniProt O43464: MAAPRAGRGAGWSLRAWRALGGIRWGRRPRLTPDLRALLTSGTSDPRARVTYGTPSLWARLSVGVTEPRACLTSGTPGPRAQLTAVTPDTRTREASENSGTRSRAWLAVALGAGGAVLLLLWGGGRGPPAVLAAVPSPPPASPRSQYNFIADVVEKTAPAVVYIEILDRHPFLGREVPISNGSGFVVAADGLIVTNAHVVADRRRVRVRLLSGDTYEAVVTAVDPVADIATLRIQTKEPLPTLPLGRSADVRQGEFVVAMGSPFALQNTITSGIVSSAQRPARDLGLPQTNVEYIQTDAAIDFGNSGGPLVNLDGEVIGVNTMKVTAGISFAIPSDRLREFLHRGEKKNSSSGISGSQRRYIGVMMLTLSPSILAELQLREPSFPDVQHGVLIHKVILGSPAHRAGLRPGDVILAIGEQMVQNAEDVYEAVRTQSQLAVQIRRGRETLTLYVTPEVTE
UniProt Q5JTV8: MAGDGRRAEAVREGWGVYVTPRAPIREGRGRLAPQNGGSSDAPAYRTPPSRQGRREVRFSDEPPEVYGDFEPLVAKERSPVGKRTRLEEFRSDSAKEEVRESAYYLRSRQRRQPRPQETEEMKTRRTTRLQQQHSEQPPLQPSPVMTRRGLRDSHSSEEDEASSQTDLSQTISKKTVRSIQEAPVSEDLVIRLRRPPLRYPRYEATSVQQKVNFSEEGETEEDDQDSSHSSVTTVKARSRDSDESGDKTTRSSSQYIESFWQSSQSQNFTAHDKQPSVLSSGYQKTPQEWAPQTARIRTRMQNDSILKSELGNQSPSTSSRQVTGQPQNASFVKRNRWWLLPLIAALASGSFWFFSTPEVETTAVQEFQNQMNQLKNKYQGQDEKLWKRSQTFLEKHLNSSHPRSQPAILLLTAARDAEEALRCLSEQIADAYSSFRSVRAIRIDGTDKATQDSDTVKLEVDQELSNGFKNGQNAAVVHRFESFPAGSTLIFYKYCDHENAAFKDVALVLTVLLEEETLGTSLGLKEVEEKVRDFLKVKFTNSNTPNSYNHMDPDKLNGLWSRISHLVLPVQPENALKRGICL
UniProt O95872: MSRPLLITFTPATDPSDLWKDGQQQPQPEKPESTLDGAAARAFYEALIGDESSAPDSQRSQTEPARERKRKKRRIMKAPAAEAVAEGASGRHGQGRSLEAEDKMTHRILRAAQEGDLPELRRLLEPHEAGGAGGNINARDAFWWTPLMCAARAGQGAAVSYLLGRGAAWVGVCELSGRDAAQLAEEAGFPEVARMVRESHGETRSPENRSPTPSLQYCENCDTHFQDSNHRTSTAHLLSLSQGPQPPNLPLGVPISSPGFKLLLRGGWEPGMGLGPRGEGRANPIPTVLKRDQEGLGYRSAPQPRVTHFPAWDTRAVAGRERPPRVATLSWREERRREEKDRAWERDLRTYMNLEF
UniProt V9HW75, whole entry, looked up: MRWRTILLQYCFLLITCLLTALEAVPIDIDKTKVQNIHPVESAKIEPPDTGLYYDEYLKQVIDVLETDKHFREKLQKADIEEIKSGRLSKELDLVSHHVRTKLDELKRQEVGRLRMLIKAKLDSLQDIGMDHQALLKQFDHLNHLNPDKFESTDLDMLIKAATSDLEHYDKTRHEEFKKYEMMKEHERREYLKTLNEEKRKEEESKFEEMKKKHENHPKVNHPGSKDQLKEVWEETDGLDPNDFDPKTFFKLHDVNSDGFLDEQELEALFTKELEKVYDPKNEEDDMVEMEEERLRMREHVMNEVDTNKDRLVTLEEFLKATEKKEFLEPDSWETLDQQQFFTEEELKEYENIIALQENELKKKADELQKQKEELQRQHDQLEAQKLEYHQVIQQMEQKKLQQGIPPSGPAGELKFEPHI
UniProt Q8WXG6, whole entry, looked up: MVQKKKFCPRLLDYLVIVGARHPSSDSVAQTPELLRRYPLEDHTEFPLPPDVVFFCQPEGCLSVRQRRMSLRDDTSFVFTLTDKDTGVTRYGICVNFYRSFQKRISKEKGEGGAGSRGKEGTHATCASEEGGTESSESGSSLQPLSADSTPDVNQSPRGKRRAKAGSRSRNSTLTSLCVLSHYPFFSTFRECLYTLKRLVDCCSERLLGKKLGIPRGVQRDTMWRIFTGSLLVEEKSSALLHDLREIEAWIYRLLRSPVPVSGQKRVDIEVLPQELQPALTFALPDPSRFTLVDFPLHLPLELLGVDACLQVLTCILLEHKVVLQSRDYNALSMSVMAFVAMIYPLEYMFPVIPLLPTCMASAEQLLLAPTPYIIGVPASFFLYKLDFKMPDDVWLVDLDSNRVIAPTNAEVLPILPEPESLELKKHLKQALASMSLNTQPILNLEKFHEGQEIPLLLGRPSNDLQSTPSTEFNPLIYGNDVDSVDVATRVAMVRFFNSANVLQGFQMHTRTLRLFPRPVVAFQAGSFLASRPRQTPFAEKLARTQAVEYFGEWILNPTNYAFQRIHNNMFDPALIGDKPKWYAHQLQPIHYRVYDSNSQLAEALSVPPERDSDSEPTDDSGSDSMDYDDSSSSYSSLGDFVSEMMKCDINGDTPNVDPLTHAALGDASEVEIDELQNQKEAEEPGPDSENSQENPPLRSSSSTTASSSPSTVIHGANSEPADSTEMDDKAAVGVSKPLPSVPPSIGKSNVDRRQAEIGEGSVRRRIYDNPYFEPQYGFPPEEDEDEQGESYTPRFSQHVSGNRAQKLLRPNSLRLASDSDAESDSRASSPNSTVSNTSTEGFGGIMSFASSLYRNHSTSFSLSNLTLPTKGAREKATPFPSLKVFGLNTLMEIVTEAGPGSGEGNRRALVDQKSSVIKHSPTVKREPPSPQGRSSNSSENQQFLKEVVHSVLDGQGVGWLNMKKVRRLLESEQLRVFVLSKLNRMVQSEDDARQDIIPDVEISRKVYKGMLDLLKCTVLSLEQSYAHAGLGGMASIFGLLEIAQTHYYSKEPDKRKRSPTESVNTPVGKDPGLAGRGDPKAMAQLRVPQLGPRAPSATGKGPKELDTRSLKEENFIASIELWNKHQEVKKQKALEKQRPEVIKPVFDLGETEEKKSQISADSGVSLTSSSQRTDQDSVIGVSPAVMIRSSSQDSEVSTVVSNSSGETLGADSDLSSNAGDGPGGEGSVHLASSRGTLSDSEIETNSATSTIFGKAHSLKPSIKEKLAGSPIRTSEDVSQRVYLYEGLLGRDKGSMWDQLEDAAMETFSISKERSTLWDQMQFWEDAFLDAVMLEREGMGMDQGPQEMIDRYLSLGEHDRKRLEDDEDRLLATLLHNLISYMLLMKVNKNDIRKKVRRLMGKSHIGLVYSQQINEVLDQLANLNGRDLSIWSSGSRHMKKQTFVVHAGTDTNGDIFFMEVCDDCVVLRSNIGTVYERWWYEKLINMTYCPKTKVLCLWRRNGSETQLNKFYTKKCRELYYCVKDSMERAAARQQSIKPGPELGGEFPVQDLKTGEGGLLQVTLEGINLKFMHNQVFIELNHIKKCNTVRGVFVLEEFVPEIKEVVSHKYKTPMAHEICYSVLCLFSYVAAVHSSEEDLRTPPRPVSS
UniProt Q9Y388: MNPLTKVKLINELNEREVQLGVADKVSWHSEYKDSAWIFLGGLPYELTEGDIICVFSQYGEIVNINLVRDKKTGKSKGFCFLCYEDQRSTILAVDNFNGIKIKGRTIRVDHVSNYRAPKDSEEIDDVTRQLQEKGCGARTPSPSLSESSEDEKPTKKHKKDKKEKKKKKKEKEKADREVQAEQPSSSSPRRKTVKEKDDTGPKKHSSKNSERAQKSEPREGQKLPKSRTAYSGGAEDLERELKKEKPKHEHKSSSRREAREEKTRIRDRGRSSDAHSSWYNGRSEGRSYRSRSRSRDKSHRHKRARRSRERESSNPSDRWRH
UniProt P01848, whole entry, looked up: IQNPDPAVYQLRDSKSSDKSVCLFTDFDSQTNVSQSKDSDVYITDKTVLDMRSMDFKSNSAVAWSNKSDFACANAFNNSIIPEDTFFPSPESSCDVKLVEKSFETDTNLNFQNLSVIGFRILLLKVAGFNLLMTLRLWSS

± gives the standard deviation of the averaged measurements. The list shows a part of the results, in another mix than the full data.

Compound in the experiment: Nc1ncnc2c1ncn2[C@@H]1O[C@H](COP(=O)(O)OP(=O)(O)OP(=O)(O)O)[C@@H](O)[C@H]1O [adenosine triphosphate]
Nature of the experiment: NP40-soluble protein abundance relative to vehicle (solubility fold change) (ratio); higher = more soluble protein in presence of ATP. A digest of the protocol: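 Crude Jurkat lysate, prepared by Dounce homogenisation, was exposed to eight concentrations from 0.1 to 10 mM for 10 min at room temperature and then 3 min at 37 °C. Solubilisation used 0.8% NP40 with benzonase for 60 min at 4 °C, followed by ultracentrifugation and TMT labelling of the supernatant for LC-MS/MS. After vsn normalisation of intensities, each value is the fold change against the detergent-processed vehicle within each replicate, across three independent experiments.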

For the target A0A0A0MQW0|A0A0A0MR39 (UniProt Q9P2K5), the NP40-soluble protein abundance was 1.05 ± 0.054 (concentration: 1mM); 1.05 ± 0.041 (concentration: 2mM); 1.08 ± 0.047 (concentration: 4mM); 1.12 ± 0.047 (concentration: 6mM); 1.1 ± 0.016 (concentration: 8mM); 1.11 ± 0.033 (concentration: 10mM).
Take “A0A087X1A8|D3VVH9 and related entries (UniProt P54252)”: the NP40-soluble protein abundance (concentration: 1mM) amounted to 0.968 ± 0.071; the NP40-soluble protein abundance (concentration: 2mM) was 0.991 ± 0.015; the NP40-soluble protein abundance (concentration: 4mM) was 0.949 ± 0.033; the NP40-soluble protein abundance (concentration: 6mM) is 1 ± 0.036; the NP40-soluble protein abundance (concentration: 8mM) was 0.95 ± 0.018; the NP40-soluble protein abundance (concentration: 10mM) was 0.951 ± 0.018.
“A0A0A0MT72|Q9BSQ5 and related entries (UniProt Q9BSQ5)”: the NP40-soluble protein abundance was 0.989 ± 0.12 (concentration: 1mM); 1.01 ± 0.059 (concentration: 2mM); 1.05 ± 0.039 (concentration: 4mM); 0.992 ± 0.092 (concentration: 6mM); 1.04 ± 0.082 (concentration: 8mM); 1.05 ± 0.1 (concentration: 10mM).
For “A0A087X011|E9PES4 and related entries (UniProt Q9Y496)”, the NP40-soluble protein abundance is, setting by setting: (concentration: 1mM) 1 ± 0.038; (concentration: 2mM) 1.01 ± 0.035; (concentration: 4mM) 1.011 ± 0.0088; (concentration: 6mM) 0.981 ± 0.03; (concentration: 8mM) 0.99 ± 0.038; (concentration: 10mM) 0.991 ± 0.026.
Regarding “A0A0A0MR06|O15258 and related entries (UniProt O15258)”, the NP40-soluble protein abundance (concentration: 1mM) came out at 0.909 ± 0.081; the NP40-soluble protein abundance (concentration: 2mM) was 0.954 ± 0.04; the NP40-soluble protein abundance (concentration: 4mM) turned out to be 0.918 ± 0.066; the NP40-soluble protein abundance (concentration: 6mM) is 0.921 ± 0.056; the NP40-soluble protein abundance (concentration: 8mM) stood at 0.857 ± 0.034; the NP40-soluble protein abundance (concentration: 10mM) came out at 1 ± 0.025.
In the case of “A0A0C4DG44|O43464 and related entries (UniProt O43464)”, the NP40-soluble protein abundance is, setting by setting: (concentration: 1mM) 0.997 ± 0.037; (concentration: 2mM) 1.01 ± 0.035; (concentration: 4mM) 1.026 ± 0.0017; (concentration: 6mM) 0.989 ± 0.035; (concentration: 8mM) 1.01 ± 0.017; (concentration: 10mM) 0.971 ± 0.025.
With “A0A0A0MSK5|Q5JTV8 and related entries (UniProt Q5JTV8)”, the NP40-soluble protein abundance amounted to 0.945 ± 0.043 (concentration: 1mM); 0.96 ± 0.027 (concentration: 2mM); 0.938 ± 0.027 (concentration: 4mM); 0.985 ± 0.029 (concentration: 6mM); 0.934 ± 0.024 (concentration: 8mM); 0.923 ± 0.019 (concentration: 10mM).
On to “A0A0A0MSL4|A0A0G2JHL1|A0A0G2JJ73|A0A0G2JK30|A0A0G2JK37|A0A0G2JKD0|F6QYZ9 and related entries (UniProt O95872)”, for which the NP40-soluble protein abundance (concentration: 1mM) turned out to be 0.974 ± 0.13; the NP40-soluble protein abundance (concentration: 2mM) came out at 1.01 ± 0.051; the NP40-soluble protein abundance (concentration: 4mM) stood at 0.907 ± 0.15; the NP40-soluble protein abundance (concentration: 6mM) was 0.903 ± 0.1; the NP40-soluble protein abundance (concentration: 8mM) was found to be 0.933 ± 0.065; the NP40-soluble protein abundance (concentration: 10mM) turned out to be 0.92 ± 0.13.
As for “A0A0C4DGX2|E7ESL0 and related entries (UniProt Q9NWU5)”, the NP40-soluble protein abundance (concentration: 1mM) stood at 1.01 ± 0.046; the NP40-soluble protein abundance (concentration: 2mM) stood at 0.952 ± 0.11; the NP40-soluble protein abundance (concentration: 4mM) was 0.936 ± 0.14; the NP40-soluble protein abundance (concentration: 6mM) was 0.906 ± 0.2; the NP40-soluble protein abundance (concentration: 8mM) is 0.939 ± 0.15; the NP40-soluble protein abundance (concentration: 10mM) is 0.959 ± 0.17.
As to A0A087WSV8|V9HW75 (UniProt V9HW75), the NP40-soluble protein abundance (concentration: 1mM) was found to be 1.06 ± 0.035; the NP40-soluble protein abundance (concentration: 2mM) was determined as 0.937 ± 0.045; the NP40-soluble protein abundance (concentration: 4mM) was 1.02 ± 0.052; the NP40-soluble protein abundance (concentration: 6mM) turned out to be 1.09 ± 0.032; the NP40-soluble protein abundance (concentration: 8mM) amounted to 1.064 ± 0.0065; the NP40-soluble protein abundance (concentration: 10mM) amounted to 0.91 ± 0.22.
Take “A0A0C4DG17|C9J9K3 and related entries (UniProt P08865)”: the NP40-soluble protein abundance by setting is: (concentration: 1mM) 0.921 ± 0.07; (concentration: 2mM) 0.903 ± 0.12; (concentration: 4mM) 0.846 ± 0.11; (concentration: 6mM) 0.813 ± 0.12; (concentration: 8mM) 0.771 ± 0.1; (concentration: 10mM) 0.803 ± 0.08.
In the case of “A0A0A0MRB5|Q8WXG6 and related entries (UniProt Q8WXG6)”, the NP40-soluble protein abundance runs as follows: (concentration: 1mM) 0.966 ± 0.035; (concentration: 2mM) 0.934 ± 0.037; (concentration: 4mM) 0.973 ± 0.084; (concentration: 6mM) 0.939 ± 0.1; (concentration: 8mM) 0.941 ± 0.085; (concentration: 10mM) 0.954 ± 0.089.
In the case of A0A087WUI1|Q9Y388 (UniProt Q9Y388), the NP40-soluble protein abundance reads like this: (concentration: 1mM) 1.2 ± 0.07; (concentration: 2mM) 1.24 ± 0.097; (concentration: 4mM) 1.29 ± 0.086; (concentration: 6mM) 1.33 ± 0.065; (concentration: 8mM) 1.34 ± 0.11; (concentration: 10mM) 1.41 ± 0.16.
Regarding “A0A087WWC6|P01848 and related entries (UniProt Q6P4I7+P01848)”, the NP40-soluble protein abundance reads like this: (concentration: 1mM) 0.916 ± 0.029; (concentration: 2mM) 0.878 ± 0.027; (concentration: 4mM) 0.883 ± 0.078; (concentration: 6mM) 0.941 ± 0.048; (concentration: 8mM) 0.874 ± 0.058; (concentration: 10mM) 0.862 ± 0.025.
